# Percent effect of library compounds

Data taken from ChEMBL document CHEMBL3988442, “University of Dundee, Small-Polar-MMV Screening Library” (2021).

A: 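Phenotypic screen: M. tuberculosis growth, glucose 7H9 medium, 3 days; the read-out is not stated. Compounds at 50 µM. Direction is inferred from retests: higher values go with more growth inhibition. About 69,000 compounds were tested under these conditions; 1.1% (about 760) showed 50% or more at least once.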
B: 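Growth of Mycobacterium tuberculosis over 4 days (cholesterol / DPPC medium with tyloxapol); the read-out is not stated. Concentration: 50 µM. The record gives no direction; compounds that gave an IC50 in retests scored well above the rest, so higher reads as more growth inhibition. Size under these conditions: about 69,000 compounds, about 370 of them at 50% or above in at least one test.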

Results are given as percent effect. The record does not define 0% and 100%; most values in the screen are far below 50% and negative numbers occur (in some assays of this library far below -100). The compounds are a random part of those screened. Two or more numbers in one place are separate tests of the same structure; such repeats can differ widely.

Compound	A	B
CCn1nc(C)c(CCn2ccnc2-c2cc3n(n2)CCCNC3)c1C	-8.758	-2.708
CCN(Cc1ccncc1)c1cc(C2CCN2C(C)=O)nc(C)n1 (stereo not shown)	-12.3	5.858 and -6.993
O=C(O)C(F)(F)F.O=C(O)C(F)(F)F.O=C(c1cccnc1)N1CC[C@H](OCC2CC2)[C@@H]1Cc1cccnc1	-13.04	-14.67
[H][C@]12CN(Cc3ccc[nH]3)C[C@@]1([H])OCCN(C(=O)c1ccccc1)C2	8.104	16.62
O=C(NCC1CCN(CCc2ccccc2)C1)NCC1(O)CCC1 (stereo not shown)	6.642	-0.2957
Cc1noc([C@@H]2C[C@H](NC(=O)NC3CCCCC3)CN2C)n1	5.993 and -1.644	-2.671
Fc1ccc(NCc2ccncc2)c(OC(F)F)c1	-1.427 and -2.291	8.708
[H][C@@]12CCN(C(=O)Cc3ccccc3C)C[C@]1(COC)CCO2	6.627	18.12
O=C(N[C@@H]1CCN(Cc2cccc3nonc23)C[C@H]1O)c1cccnc1	-8.133	2.839
CCc1nnsc1C(=O)N1CCCC(c2nc3ccccc3[nH]2)C1 (stereo not shown)	-24.54	-31.74
O=C(Nc1cc(N2CCOCC2)ncn1)c1cnccn1	-20.87 and -2.131	4.479
O=C(O)C(F)(F)F.[H][C@@]12CN(C(=O)Cc3ccsc3)C[C@]1([H])OCCN2C(C)C	-5.684 and 29.28	-2.956
CC(C)NC(=O)C1CCc2nnc(CNC(=O)c3ccc(Cl)cc3Cl)n21 (stereo not shown)	6.228	-15.55
CCN1CC2(CCN(C(=O)N(C)C)CC2)COc2ccccc2S1(=O)=O	-45.71	-12.54
COc1ccc(N2CCN(C(=O)c3cc(=O)c(OC)c[nH]3)CC2)cc1	-9.696 and -3.047	-17.53
CCCc1nnsc1C(=O)N1CCN(CC(O)C2CC2)CC1.Cl (stereo not shown)	-11.34 and -32.65	-33.88
CCc1[nH]ncc1C(=O)N1CCCN(Cc2cnn(C(C)C)c2)CC1	14.95	-48.79
CC(C)c1noc(CCCC(=O)NCC2CCS(=O)(=O)C2)n1 (stereo not shown)	-18.39	-7.075
O=C(NCC1CC1)C1CN(C(=O)c2ccco2)CC12CCOCC2 (stereo not shown)	-3.405 and 20.65	-5.246 and -81.28
Cn1ncc2c1CCCN(C(=O)C1CCC1)C2	-31.67	-1.329 and 4.423
O=C(N1CCCC1)N1CCN(Cc2cccnc2)c2ncccc2C1.O=C(O)C(F)(F)F.O=C(O)C(F)(F)F	22.94	-19.64
CC(C)Oc1ccccc1-c1cc(CN)ccc1F	-28.18 and -2.661	-6.034 and -18.54
C[C@H]1CN(Cc2cccc(F)c2)C[C@@]12CCN(CC(=O)N(C)C)C2=O.O=C(O)C(F)(F)F	7.855	-9.654
COCCC(=O)N1CCC2(CCCN2Cc2cccc(Cl)c2)C1 (stereo not shown)	-14.94	-2.536
CC(C)(C)NC(=O)C1CSCN1C(=O)CCc1ccco1 (stereo not shown)	-35.5	-7.941
Cn1ccnc1-c1noc(NCc2ccccc2)n1	-9.096	-7.893
CC(C)(C)n1cc(C(=O)N2CCN(Cc3ccco3)CC2)cn1	8.129	21.34
CC(C)CC(O)C1CCN(C(=O)c2ccc(C(F)(F)F)nc2O)CC1 (stereo not shown)	2.582	-0.2714
O=C1N(CCC2CCCCC2)CCCC1(O)CNCCc1ccccc1 (stereo not shown)	17.93	30.45 and -8.648
COc1ccccc1Oc1ncccc1CNC(=O)C1(C)CCCNC1 (stereo not shown)	7.051	-28.86
O=C(NC1CC1)C1(Cc2ccccc2-c2ccncc2)CCOCC1	11.94	-0.6385
O=C(Nc1ccc(F)cc1)C1CSCN1 (stereo not shown)	8.922	-13.01
CSCC[C@H](NC(=O)Cn1ccc2ccc(Cl)cc21)C(=O)O	-3.07	-9.565
Cn1cnnc1C1CCN(C(=O)c2cc3c(s2)CCC3)CC1	-27.04 and 2.921	-16.64
O=C(CSc1nc2c(cnn2CCO)c(=O)[nH]1)N1CCCCCC1	-17.48 and -6.976	-21.15
COCC(NC(=O)c1ccco1)c1cccc(C(F)(F)F)c1 (stereo not shown)	14.49	27.5
Cc1nc(Nc2nccs2)cc(C2CCCN2C2CCOCC2)n1 (stereo not shown)	42.4	-2.952
O=C(O)C(F)(F)F.O=C(O)C(F)(F)F.c1cncc(COCc2nnc3n2CCN(Cc2ccoc2)C3)c1	-22.42	-19.71
CN(C)Cc1nc(C2(NC(=O)Nc3ccccc3)CCCC2)no1	-1.854 and 4.454	2.544
O=C(Nc1ccccc1)C1=NOC2(CCCNC2)C1 (stereo not shown)	-58.73	-47.22

4 of the entries, repeated:

| Compound | A | B |
|---|---|---|
| `CCc1nnsc1C(=O)N1CCCC(c2nc3ccccc3[nH]2)C1` (stereo not shown) | -24.54 | -31.74 |
| `O=C(NCC1CC1)C1CN(C(=O)c2ccco2)CC12CCOCC2` (stereo not shown) | -3.405 and 20.65 | -5.246 and -81.28 |
| `CSCC[C@H](NC(=O)Cn1ccc2ccc(Cl)cc21)C(=O)O` | -3.07 | -9.565 |
| `[H][C@]12CN(Cc3ccc[nH]3)C[C@@]1([H])OCCN(C(=O)c1ccccc1)C2` | 8.104 | 16.62 |